Measured values taken from article doi:10.1101/2023.09.07.556574.
These are yes or no findings as the source states them, for the method shown. In cells and extracts the contact can be indirect. Some entries that bind do so weakly or less than the wild type. Each block holds one molecule with its values, some of them ahead of it.

Sequences of proteins named here, by UniProt entry; tags and fusion partners are left off. Residues count along the entry.
UniProt P52480: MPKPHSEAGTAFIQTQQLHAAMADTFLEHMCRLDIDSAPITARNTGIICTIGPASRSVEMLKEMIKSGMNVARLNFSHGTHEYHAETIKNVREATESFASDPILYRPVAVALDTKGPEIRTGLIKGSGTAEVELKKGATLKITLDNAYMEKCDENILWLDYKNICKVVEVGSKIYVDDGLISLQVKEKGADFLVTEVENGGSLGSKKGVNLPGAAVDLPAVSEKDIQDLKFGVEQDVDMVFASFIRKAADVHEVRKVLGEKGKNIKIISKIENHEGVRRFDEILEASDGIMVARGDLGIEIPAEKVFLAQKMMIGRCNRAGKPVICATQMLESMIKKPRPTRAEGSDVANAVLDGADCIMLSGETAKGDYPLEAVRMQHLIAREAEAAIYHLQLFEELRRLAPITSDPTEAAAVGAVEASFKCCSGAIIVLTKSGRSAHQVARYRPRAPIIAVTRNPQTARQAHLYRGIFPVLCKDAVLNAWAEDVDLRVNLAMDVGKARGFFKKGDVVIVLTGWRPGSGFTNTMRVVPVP
UniProt P14618: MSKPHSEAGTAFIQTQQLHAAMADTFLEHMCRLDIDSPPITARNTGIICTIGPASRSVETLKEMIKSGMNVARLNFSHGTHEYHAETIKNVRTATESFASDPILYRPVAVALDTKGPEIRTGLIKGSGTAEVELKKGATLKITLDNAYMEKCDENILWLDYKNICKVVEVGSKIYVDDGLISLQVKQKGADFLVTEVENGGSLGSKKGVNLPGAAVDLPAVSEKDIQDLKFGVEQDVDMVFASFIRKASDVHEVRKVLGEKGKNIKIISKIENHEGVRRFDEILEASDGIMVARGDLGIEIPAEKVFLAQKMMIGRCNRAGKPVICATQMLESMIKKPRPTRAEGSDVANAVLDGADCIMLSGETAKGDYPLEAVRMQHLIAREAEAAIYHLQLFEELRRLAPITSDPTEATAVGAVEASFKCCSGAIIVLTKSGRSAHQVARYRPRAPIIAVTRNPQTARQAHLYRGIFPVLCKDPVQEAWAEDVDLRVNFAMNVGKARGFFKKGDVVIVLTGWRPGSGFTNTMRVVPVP
UniProt P38647, residues 47-679: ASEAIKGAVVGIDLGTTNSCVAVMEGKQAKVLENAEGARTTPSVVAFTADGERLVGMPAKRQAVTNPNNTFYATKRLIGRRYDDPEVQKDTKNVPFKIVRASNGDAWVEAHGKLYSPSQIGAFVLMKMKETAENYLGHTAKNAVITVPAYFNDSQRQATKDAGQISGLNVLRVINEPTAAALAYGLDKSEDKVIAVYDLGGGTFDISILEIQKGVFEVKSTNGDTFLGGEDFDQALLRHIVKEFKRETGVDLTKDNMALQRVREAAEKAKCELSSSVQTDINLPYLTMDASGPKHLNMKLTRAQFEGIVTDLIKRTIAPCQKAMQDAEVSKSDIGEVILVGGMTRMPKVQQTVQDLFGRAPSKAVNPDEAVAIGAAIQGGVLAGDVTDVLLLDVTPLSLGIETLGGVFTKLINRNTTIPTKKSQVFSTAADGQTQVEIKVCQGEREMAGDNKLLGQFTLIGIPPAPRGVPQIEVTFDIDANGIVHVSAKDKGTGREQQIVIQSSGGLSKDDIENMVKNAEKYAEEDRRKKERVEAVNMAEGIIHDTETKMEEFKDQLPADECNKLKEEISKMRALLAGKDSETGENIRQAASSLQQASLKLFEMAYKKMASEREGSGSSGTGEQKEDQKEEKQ
UniProt P38646, residues 47-679: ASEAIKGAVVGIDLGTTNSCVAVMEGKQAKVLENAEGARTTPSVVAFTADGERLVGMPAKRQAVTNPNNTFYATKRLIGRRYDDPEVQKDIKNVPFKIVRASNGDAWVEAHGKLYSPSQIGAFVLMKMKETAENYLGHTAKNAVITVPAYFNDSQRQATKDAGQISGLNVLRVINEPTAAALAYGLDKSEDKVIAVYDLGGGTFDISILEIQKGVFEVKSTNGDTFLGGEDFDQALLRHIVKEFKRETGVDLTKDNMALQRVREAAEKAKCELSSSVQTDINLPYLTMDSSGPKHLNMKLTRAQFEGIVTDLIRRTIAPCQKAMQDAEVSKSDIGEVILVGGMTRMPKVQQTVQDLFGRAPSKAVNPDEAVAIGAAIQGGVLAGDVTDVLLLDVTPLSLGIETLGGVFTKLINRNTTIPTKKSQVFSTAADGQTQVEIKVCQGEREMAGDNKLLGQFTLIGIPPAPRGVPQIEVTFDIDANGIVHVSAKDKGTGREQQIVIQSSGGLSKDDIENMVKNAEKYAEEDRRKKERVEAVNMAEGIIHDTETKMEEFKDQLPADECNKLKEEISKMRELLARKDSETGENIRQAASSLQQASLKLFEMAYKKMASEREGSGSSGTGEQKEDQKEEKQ

Assays:
[1] = molecular target: pyruvate kinase muscle 2 (PKM2), murine (mouse (endogenous in murine peritoneal macrophages)) (UniProt P52480); test: co-IP
[2] = molecular target: pyruvate kinase muscle 2 (PKM2), human (human (endogenous in HMDMs)) (UniProt P14618); test: co-IP
[3] = molecular target: pyruvate kinase muscle 2 (PKM2), murine (mouse (endogenous in murine peritoneal macrophages)) (UniProt P52480); test: proximity ligation
[4] = molecular target: pyruvate kinase muscle 2 (PKM2), murine (mouse (endogenous in murine peritoneal macrophages)) (UniProt P52480); test: co-IP; remark: listed apart in the source

- binding [1]: binds
Molecule: GRP75, murine (from UniProt P38647 47-679)

- binding [2]: binds
Molecule: GRP75, human (from UniProt P38646 47-679)

- binding [3]: binds
- binding [4]: binds
B1: UQCRC1, a subunit of ETC Complex III, murine (protein, UniProt Q9CZ13 35-480)
chain: TATFAQALQSVPETQVSILDNGLRVASEQSSHATCTVGVWIDAGSRYETEKNNGAGYFLEHLAFKGTKNRPGNALEKEVESIGAHLNAYSTREHTAYLIKALSKDLPKVVELLADIVQNSSLEDSQIEKERDVILREMQENDASMQNVVFDYLHATAFQGTPLAQAVEGPSENVRRLSRTDLTDYLNRHYKAPRMVLAAAGGVEHQQLLDLAQKHLSSVSRVYEEDAVPGLTPCRFTGSEIRHRDDALPLAHVAIAVEGPGWANPDNVTLQVANAIIGHYDCTYGGGVHLSSPLASVAVANKLCQSFQTFNISYSDTGLLGAHFVCDAMSIDDMVFFLQGQWMRLCTSATESEVTRGKNILRNALVSHLDGTTPVCEDIGRSLLTYGRRIPLAEWESRIQEVDAQMLRDICSKYFYDQCPAVAGYGPIEQLPDYNRIRSGMFWLRF
